Data from article PMC10433351.
Results are given in words; binding and its absence hold for the method and conditions named.

Assays:
[1] = target: hydrogenated full-length N-acetylglucosamine-binding protein A (H-GbpA-FL) (Vibrio cholerae) (UniProt Q9KLD5); test: SAXS; 40.0 uM H-GbpA-FL or 32.0 uM D-GbpA-FL in 100 mM NaCl, 20 mM Tris-HCl pH 8.0; Bruker NanoStar, 24 °C; oligomeric state in solution; both purified
[2] = target: perdeuterated full-length N-acetylglucosamine-binding protein A (D-GbpA-FL) (Vibrio cholerae) (UniProt Q9KLD5); test: as above

| Substance | binding [1] | binding [2] |
| --- | --- | --- |
| hydrogenated full-length N-acetylglucosamine-binding protein A (H-GbpA-FL) (from UniProt Q9KLD5 24-485) (enzyme) | no binding (tested: 40.0 uM) | – |
| perdeuterated full-length N-acetylglucosamine-binding protein A (D-GbpA-FL) (from UniProt Q9KLD5 24-485) (enzyme) | – | no binding (tested: 32.0 uM) |
